This note sets out measurements from article PMC6797480.

The experiment deals with C-terminal FLAG tagged-Piwi4 (Aedes aegypti) (UniProt Q171B3). As to the kind of experiment: affinity purification with mass spectrometry; C-terminal FLAG tagged-Piwi4 expressed in Aag2 cells as bait; lysis in IP-buffer (10 mM Tris pH 7.5, 2.5 mM EDTA, 250 mM NaCl) + 0.5% NP-40; anti-FLAG beads 6-16 hr at 4°C; eluted with 3x Flag peptide; Orbitrap LC-MS, MaxQuant.

These are yes or no findings as the source states them, for the method shown. In cells and extracts the contact can be indirect. Here binding means that the protein was enriched with, or labelled near, the bait; the list need not be complete.

B1: Argonaute-2 (protein, UniProt C5J0H4 1-992)
chain: MILNARYLYIPCRQKQQQQQQQPQQQQQHQQKQQSQQQQQQQQQQQRSKEQGSQQQQRPQQQAQQQQPSQQQQQSQKQQHPQQQQQQRPQKQQQQFQQDQRPQQQQQQLQKQQQQQGQSWRPQSHDPSPASGSHSHSSSPSHAAALERVEEDFSKIKIDKQKIHSSALLPVLMRPNAHGTRGRAIKVEVNYIQLLLERLIPTAYHYDVDIQPAASRKWQRLAFSEFTKQMFPNHGFAFDGHKNAYAARRLQADVYEQEVKVRDEGRERRFKVAMKEAAVLDMTCLKTYMNNGSTLDKPMSAIQCLDIVLRTAYENNPRFIKFKKSIYVKPDRPDDIGSNHELWYGLFQSALLGARPFLNIDVSHKAFPTGGPVLRILVDMNRGQVPDRVTDWMSRDLHDFLKGMELSYTGPDGVSKLFKYNSIKSPANQQKFKLENGTEMTIDQYFRSKNKQLRYPSLPVLHVGSLVRNVMLPIELCSIPPGQALNKKHPDQCTQFIIRKSATDTATRKRKIMDLFNQIGYNNAPTIKEFGVSVGNNFETVDGRILDPPELSYRNDRRVKPMRGVWRADNMNFIIPSTEITRRELSWTILNLDGRTRPDAIDEFGRNIYQMSLKQGVQLQQFSMKNNFYEPRDMRFAVKDLDNIFDELKKRKIDLVFVVIPSPGRDGDVYAKVKQKAELCVGLLTQCIKSFTLDKKRGDMSTISNIWLKINAKTNGSNHVLAKNFKPPIARKTVMYVGADVTHPSPEQTNIPSVVGVAASYDLEGFRYNCCYRLQGPKDEMIRDLQNIVIKQLRQFKQTNQSLPELIMYYRDGVSEGQFQEVLTIELRAMQAAAASVQQGYKPNITFIVVQKRHHARFFPTANCPTEGRNNNVQPGTIVDRYITAPNQYQFFLVSHAAVQGVAKPTKYCVLYDDENCNPDQLQALTYYLCHMFTRCNRAVSYPAPTYYAHLAAYRGRVYIKDRPLNMNNLTKEYERMQIRTEIQDGHPMFFV
As for B1, the binding result is on record as “binds”.
